Test results: PubChem BioAssay AID540276 (National Center for Advancing Translational Sciences (NCATS), 2011)
Screen size: about 300,000 compounds; about 5,400 (1.8%) were called active. This list was built around the results that the source calls inconclusive (neither active nor inactive); the mix of calls is not that of the screen. Calls come from the whole dose curve; tested in HEK293 cells. A potency beside an inconclusive call is a rough fit, not a confirmed value.

Assay: qHTS for inhibitors of binding or entry into cells for Marburg Virus
Conditions: Marburg virus pseudotyped entry inhibition, cell reporter; series mostly up to 37.8 µM
Potency is the fitted concentration of half-maximal effect.

SMILES	Potency
Cc1ccc(-c2c3c(nc4sc(C(N)=O)c(N)c24)CCC3)cc1	inactive
COc1ccc(-c2nc(CS(=O)CC(=O)NCCCN3CCCC(C)C3)c(C)o2)cc1OC (stereo unspecified)	inconclusive: 17.8 µM [inhibitor, partial curve, poor fit]
N/C(=N\OC(=O)c1cccc2ccccc12)c1ccc(Br)cc1	inconclusive: 0.146 µM [inhibitor, single point]
CSc1nc2nc(C)c(CCC(=O)OCC(=O)Nc3ccc(F)cc3)c(C)n2n1	inactive
CCOc1ccc(NC(=O)C2CC(=O)NC(=Nc3ccc(Cl)c(Cl)c3)S2)cc1 (stereo unspecified)	inactive
O=C(CSc1ccccc1)NCCSCc1ccccc1	inconclusive: 7.94 µM [activator, partial curve, poor fit]
COC(=O)c1ccc(NC(=O)c2ccccc2CC[N+](=O)[O-])cc1	inactive
Cc1ccc(OCC(=O)Nc2cccc(-c3nc4ccccc4s3)c2)cc1	inactive
O=C(NCCN1CCN(Cc2ccccc2)CC1)c1ccc(CS(=O)(=O)c2ccc(Br)cc2)o1	inactive
O=C(Nc1cccc(S(=O)(=O)N2CCCCC2)c1)c1ccccc1NS(=O)(=O)c1ccc(F)cc1	inconclusive: 12.6 µM [inhibitor, partial curve, poor fit]
Cc1ccc(C(=O)c2coc3ccc(O)c(CN4CCN(C)CC4)c23)cc1	active: 23.1 µM
COc1ccc(C(=O)CSc2ncn[nH]2)cc1OC	inactive
COc1ccc(C(=O)Nc2ccc(C(=O)OCC(=O)c3ccccc3)cc2)cc1	inconclusive: 1.78 µM [activator, partial curve, poor fit]
Cc1ccc(C(=O)c2oc3ccccc3c2N)cc1	inconclusive: 35.5 µM [activator, single point]
Cc1cccc(C(C)C)c1NC(=O)COC(=O)Cc1ccsc1	inconclusive: 6.31 µM [activator, single point]
COc1cc(OC)cc(C(=O)NC(=S)NNC(=O)[C@H]2C[C@@H]2c2ccccc2)c1	inactive
Cc1cc(C)cc(OCC(=O)N(C)CC(=O)Nc2ccc(N3CCOCC3)cc2)c1	inactive
C=CCNC(=O)c1ccccc1NC(=O)C1CCN(S(=O)(=O)c2ccc(SC)cc2)CC1	inactive
COc1ccc(C2C=C(c3ccccc3)Nc3nc(NC(=O)c4cccc([N+](=O)[O-])c4)nn32)cc1 (stereo unspecified)	inactive
C=CCn1c(SCC(=O)c2[nH]c(C)c(C(=O)OCC)c2C)nc2scc(-c3ccc(OC)c(OC)c3)c2c1=O	inconclusive: 10 µM [inhibitor, partial curve, poor fit]
CC(=O)Oc1ccc(N(C(C)=O)S(=O)(=O)c2ccc(Cl)cc2)c2ccccc12	inconclusive: 35.5 µM [inhibitor, single point]
COc1ccc(C(=O)Nc2ccc3oc(-c4cccnc4)nc3c2)cc1	inactive
COc1cccc(C(CCc2cc(OC)c(OC)c(OC)c2)NC(C)=O)c1 (stereo unspecified)	inactive
Clc1cccc(N2CCN(c3nc4ccccc4n4nnnc34)CC2)c1	inactive

SMILES	Potency
CCCOc1ccc(Cn2c(C)nc([N+](=O)[O-])c2SCC(O)COC)cc1[N+](=O)[O-] (stereo unspecified)	inactive
O=C(CC(=O)NN=Cc1ccc2c(c1)CCC2)NN=Cc1ccc2c(c1)CCC2	inactive
COc1ccc(N2CCN(c3nc(NC(C)(C)C)nc(N4CCCCC4)n3)CC2)cc1	inconclusive: 1.78 µM [inhibitor, full curve, poor fit]
Cc1ccccc1-c1nnc(SCCC(=O)N2CCOCC2)o1	inconclusive: 31.6 µM [activator, single point]
CCNC(=S)Nc1cccc(S(=O)(=O)NC2=NCCC2)c1	inactive
O=C(CSc1nnc2c(n1)[nH]c1ccccc12)Nc1ccc2c(c1)OCO2	inconclusive: 29.1 µM [inhibitor, single point]
Cc1cccc(Cn2c(C(=O)OC(C)C)cc3c2ccn3C)c1	inconclusive: 10 µM [inhibitor, partial curve, poor fit]
Cc1ccc(S(=O)(=O)ON=C2CCN(S(=O)(=O)c3ccccc3)CC2)cc1	inactive
Cc1sc2ncn(CC(=O)NCC3COc4ccccc4O3)c(=O)c2c1S(=O)(=O)N1CCOCC1 (stereo unspecified)	inconclusive: 0.517 µM [activator, partial curve]
O=C(CSc1nnc(CNc2ccc(F)cc2)o1)N1c2ccccc2Sc2ccccc21	inconclusive: 14.6 µM [inhibitor, partial curve]
CC(=O)Nc1ccc(NC(=O)CC(c2ccccc2)c2ccccc2)cc1	inactive
CCOc1ccc(N=C(NC#N)SCC)cc1	inconclusive: 29.1 µM [activator, partial curve, poor fit]
COc1cc2c(c(OC)c1OC)-c1ccc(N(C)CC(OC)OC)c(=O)cc1[C@@H](NC(C)=O)CC2	active: 1 µM
O=C(COc1ccccc1F)Nc1ccc2oc(-c3cccc(Cl)c3)nc2c1	inactive
N/C(=N\OC(=O)C(c1ccccc1)c1ccccc1)c1cccnc1	inactive
Cc1ccc(C(=O)OCC(=O)Nc2ccccc2C(F)(F)F)cc1S(=O)(=O)N1CCCCC1	inconclusive: 35.5 µM [inhibitor, single point]
O=C1NN(c2ccc(Cl)cc2)C(=O)/C1=C\c1ccc(-c2cccc(C(=O)O)c2)o1	inconclusive: 0.355 µM [activator, full curve, poor fit]
O=C(COc1ccccc1)N1CCN(c2nnc(-c3ccccc3)c3ccccc23)CC1	inconclusive: 20.6 µM [inhibitor, single point]
CNC(=O)OCC[N+](C)(C)C	inconclusive: 0.0891 µM [activator, full curve, poor fit]
CCN(CC(=O)Nc1ccc(OC)cc1)C(=O)c1ccc2ccccc2c1	inactive
Cc1cccc(C)c1OCCCCCNCCO	inconclusive: 18.3 µM [inhibitor, single point]
COc1ccc(NS(=O)(=O)c2cccc(NC(=O)c3ccc(Cl)nc3)c2)cc1	inconclusive: 0.631 µM [inhibitor, full curve, poor fit]
CCCCc1nc2ccccc2c(=O)n1-c1ccccc1[N+](=O)[O-]	inactive
CCCCN1CC(COc2ccccc2)Oc2cc(Br)ccc2S1(=O)=O (stereo unspecified)	inconclusive: 8.87 µM [inhibitor, full curve, poor fit]

In the list so far, four have a furan ring, fused or not.
SMILES	Potency
O=C(NCCN1CCN(Cc2ccccc2)CC1)c1ccc(CS(=O)(=O)c2ccc(Br)cc2)o1	inactive
Cc1ccc(C(=O)c2coc3ccc(O)c(CN4CCN(C)CC4)c23)cc1	active: 23.1 µM
Cc1ccc(C(=O)c2oc3ccccc3c2N)cc1	inconclusive: 35.5 µM [activator, single point]
O=C1NN(c2ccc(Cl)cc2)C(=O)/C1=C\c1ccc(-c2cccc(C(=O)O)c2)o1	inconclusive: 0.355 µM [activator, full curve, poor fit]

(cont.)

SMILES	Potency
CCOC(=O)Cc1csc(NC(=O)COc2ccc(N(C)S(=O)(=O)c3cccs3)cc2)n1	inconclusive: 15.8 µM [inhibitor, single point]
CC1CCC(NC(=O)c2ccc3c(c2)OCO3)CC1 (stereo unspecified)	inconclusive: 7.08 µM [inhibitor, partial curve, poor fit]
O=C(O)[C@H]1[C@H](C(=O)O)[C@H]2CC[C@@H]1O2	inconclusive: 35.5 µM [inhibitor, single point]
COc1ccc2nc(Nc3nc(CSc4nc5ccccc5[nH]4)cc(=O)[nH]3)nc(C)c2c1	active: 11.2 µM
N/C(Cc1ccc(Cl)cc1Cl)=N\OC(=O)Cc1ccc(Cl)cc1	inactive
CCOc1ccc(C(=O)OCC(=O)N2CCCC2)cc1	inconclusive: 12.6 µM [activator, single point]
COc1ccccc1C1C(C(=O)NCc2ccccc2)=C(C)Nc2ncnn21 (stereo unspecified)	inconclusive: 29.1 µM [activator, partial curve, poor fit]
CCOC(=O)c1cnc(-n2cc(C)cn2)nc1NCc1ccc2c(c1)OCO2	inconclusive: 9.2 µM [inhibitor, partial curve]
CCCN(CC(=O)Nc1ccccc1C)C(=O)Cc1c[nH]c2ccccc12	inactive
CCOc1ccc(S(=O)(=O)N2CCCC(C(=O)NCc3ccccc3)C2)cc1 (stereo unspecified)	inactive
O=C1NC(=Nc2cccc([N+](=O)[O-])c2)SC1(CO)CO	inactive
COc1ccc(Cn2c(=O)[nH]c3cc(C(=O)NCCCN4CCCC4)ccc3c2=O)cc1	inconclusive: 29.1 µM [inhibitor, single point]
CCn1cc(CNCc2cn[nH]c2-c2cc3ccccc3o2)cn1	inconclusive: 20 µM [inhibitor, partial curve, poor fit]
O=C(NCc1ccc2c(c1)OCO2)c1cc(-c2ccncc2)nc2ccccc12	inconclusive: 22.4 µM [inhibitor, single point]
CCCCCOC(=O)c1[nH]c2c(c1C)C(=O)C(C(=O)OC)C(C)C2 (stereo unspecified)	inactive
COc1ccc(-c2cn[nH]c2-c2ccc(OCc3ccccc3)cc2O)cc1OC	inconclusive: 35.5 µM [inhibitor, partial curve, poor fit]
COc1cc(OC)cc(C(=O)Nc2ccc(S(=O)(=O)Nc3cnc4ccccc4n3)cc2)c1	inactive
O=C(CSc1nc(-c2ccc(F)cc2)cs1)Nc1ccccn1	inconclusive: 12.6 µM [inhibitor, partial curve, poor fit]
BrC(=C\c1ccccc1)/C=N/Nc1nc2ccccc2[nH]1	inconclusive: 12.6 µM [inhibitor, partial curve, poor fit]
O=C1CN(C(=O)COc2ccc(Cl)cc2)C(c2ccccc2)c2cc(Br)ccc2N1 (stereo unspecified)	inactive
CCN(CC)C(=O)C1(P(=O)(c2ccccc2)c2ccccc2)CCC1	inconclusive: 2.82 µM [inhibitor, partial curve, poor fit]
COc1ccc(Cc2nnc(SCC(=O)N(c3ccccc3)C(C)C)n(N)c2=O)cc1	inconclusive: 35.5 µM [inhibitor, single point]
O=C(NCc1ccccc1)C1CCCN(S(=O)(=O)c2cccc3nsnc23)C1 (stereo unspecified)	inactive

Reprinted at random: 2 entries already listed.
SMILES	Potency
O=C(NCc1ccccc1)C1CCCN(S(=O)(=O)c2cccc3nsnc23)C1 (stereo unspecified)	inactive
COc1ccccc1C1C(C(=O)NCc2ccccc2)=C(C)Nc2ncnn21 (stereo unspecified)	inconclusive: 29.1 µM [activator, partial curve, poor fit]
